From paper doi:10.1101/2020.04.01.020479
No constants are given. Whether binding was seen depends on the method and setting. Binding seen in cells or lysates may run through a third protein. A yes stands for co-enrichment or nearness to the bait. Other partners may have been found. For some assays here: Sequences can lack the tags named with a protein.

By UniProt entry, the sequences of proteins in these tests, tags left out.
UniProt Q14318: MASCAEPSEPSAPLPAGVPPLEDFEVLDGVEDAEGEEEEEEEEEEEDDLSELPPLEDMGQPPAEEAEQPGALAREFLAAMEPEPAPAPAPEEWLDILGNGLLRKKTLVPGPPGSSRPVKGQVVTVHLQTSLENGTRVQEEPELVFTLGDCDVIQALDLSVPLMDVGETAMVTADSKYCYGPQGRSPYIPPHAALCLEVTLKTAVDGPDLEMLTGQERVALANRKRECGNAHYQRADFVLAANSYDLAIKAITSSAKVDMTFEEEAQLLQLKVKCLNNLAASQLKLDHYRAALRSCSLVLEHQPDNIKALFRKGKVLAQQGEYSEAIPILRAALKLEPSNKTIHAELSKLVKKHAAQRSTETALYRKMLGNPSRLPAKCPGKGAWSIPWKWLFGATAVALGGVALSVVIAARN
UniProt Q8IXI1: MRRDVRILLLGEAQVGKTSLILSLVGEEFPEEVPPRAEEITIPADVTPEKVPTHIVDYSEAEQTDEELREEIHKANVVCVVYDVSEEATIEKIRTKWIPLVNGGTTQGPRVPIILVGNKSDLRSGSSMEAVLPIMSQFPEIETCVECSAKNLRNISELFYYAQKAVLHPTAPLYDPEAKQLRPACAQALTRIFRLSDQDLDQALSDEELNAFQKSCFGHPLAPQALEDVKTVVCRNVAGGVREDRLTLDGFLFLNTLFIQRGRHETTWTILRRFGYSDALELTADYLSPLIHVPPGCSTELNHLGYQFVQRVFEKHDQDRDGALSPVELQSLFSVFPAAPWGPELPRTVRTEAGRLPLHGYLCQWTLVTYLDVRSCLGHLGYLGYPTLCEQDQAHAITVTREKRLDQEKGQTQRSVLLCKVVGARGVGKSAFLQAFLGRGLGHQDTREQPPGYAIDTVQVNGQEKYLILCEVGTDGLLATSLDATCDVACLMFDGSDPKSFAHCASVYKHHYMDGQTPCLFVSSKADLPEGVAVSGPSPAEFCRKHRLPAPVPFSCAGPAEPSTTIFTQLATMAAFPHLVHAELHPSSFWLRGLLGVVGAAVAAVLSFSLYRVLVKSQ

T1: MTRF1L-BirA*-FLAG (human) (UniProt Q9UGC7)
T1 sequence: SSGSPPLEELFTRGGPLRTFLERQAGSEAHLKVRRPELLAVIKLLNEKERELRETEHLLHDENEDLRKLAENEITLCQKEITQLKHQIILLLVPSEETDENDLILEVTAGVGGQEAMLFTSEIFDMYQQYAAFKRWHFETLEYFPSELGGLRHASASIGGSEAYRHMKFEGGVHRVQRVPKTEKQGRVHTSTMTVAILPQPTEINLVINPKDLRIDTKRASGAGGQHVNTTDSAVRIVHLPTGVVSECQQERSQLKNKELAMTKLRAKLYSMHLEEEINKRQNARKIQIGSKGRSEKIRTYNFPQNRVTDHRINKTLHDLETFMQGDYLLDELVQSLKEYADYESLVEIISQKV

T2: PTPN1 BirA*-FLAG bait (human) (UniProt P18031)
T2 sequence: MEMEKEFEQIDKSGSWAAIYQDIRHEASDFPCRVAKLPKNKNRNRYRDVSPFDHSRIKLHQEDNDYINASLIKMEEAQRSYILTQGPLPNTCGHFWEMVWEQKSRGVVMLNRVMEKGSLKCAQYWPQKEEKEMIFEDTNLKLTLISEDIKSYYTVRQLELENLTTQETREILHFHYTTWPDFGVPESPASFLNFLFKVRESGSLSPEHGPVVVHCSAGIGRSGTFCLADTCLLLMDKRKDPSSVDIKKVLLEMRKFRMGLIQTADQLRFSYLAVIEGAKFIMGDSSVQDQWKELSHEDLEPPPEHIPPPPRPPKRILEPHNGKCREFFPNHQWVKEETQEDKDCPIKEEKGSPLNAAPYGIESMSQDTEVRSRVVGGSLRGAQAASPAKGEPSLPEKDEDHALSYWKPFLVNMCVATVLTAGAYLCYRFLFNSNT

T3: RMDN3-BirA*-FLAG (human) (UniProt Q96TC7)
T3 sequence: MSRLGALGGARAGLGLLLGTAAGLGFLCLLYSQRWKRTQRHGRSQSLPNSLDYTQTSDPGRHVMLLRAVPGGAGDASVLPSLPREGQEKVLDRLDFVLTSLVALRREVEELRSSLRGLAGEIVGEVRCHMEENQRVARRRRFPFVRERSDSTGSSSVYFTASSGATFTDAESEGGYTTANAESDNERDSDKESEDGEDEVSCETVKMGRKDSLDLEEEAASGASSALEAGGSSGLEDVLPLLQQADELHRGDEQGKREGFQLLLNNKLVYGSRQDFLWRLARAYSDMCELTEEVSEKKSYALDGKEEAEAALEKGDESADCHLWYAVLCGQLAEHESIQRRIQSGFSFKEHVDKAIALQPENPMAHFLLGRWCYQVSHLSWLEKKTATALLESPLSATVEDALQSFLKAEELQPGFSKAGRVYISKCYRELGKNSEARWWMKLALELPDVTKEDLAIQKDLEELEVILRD

T4: SLC25A46 BirA*-FLAG bait (human) (UniProt Q96AG3)
T4 sequence: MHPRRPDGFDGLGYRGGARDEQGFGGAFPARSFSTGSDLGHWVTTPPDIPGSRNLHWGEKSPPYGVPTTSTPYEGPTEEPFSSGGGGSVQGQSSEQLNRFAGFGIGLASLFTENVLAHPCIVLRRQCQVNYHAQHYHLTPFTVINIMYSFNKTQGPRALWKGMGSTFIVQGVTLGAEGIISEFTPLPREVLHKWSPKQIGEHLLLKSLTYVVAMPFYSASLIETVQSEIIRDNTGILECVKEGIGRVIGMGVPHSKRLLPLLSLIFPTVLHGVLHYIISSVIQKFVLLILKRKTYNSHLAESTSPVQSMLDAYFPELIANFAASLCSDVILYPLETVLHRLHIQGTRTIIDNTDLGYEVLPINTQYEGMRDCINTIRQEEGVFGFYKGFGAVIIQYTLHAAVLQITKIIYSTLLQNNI

B1: ACAD9 (endogenous prey) (protein, UniProt Q9H845 38-621)
chain: AFAKELFLGKIKKKEVFPFPEVSQDELNEINQFLGPVEKFFTEEVDSRKIDQEGKIPDETLEKLKSLGLFGLQVPEEYGGLGFSNTMYSRLGEIISMDGSITVTLAAHQAIGLKGIILAGTEEQKAKYLPKLASGEHIAAFCLTEPASGSDAASIRSRATLSEDKKHYILNGSKVWITNGGLANIFTVFAKTEVVDSDGSVKDKITAFIVERDFGGVTNGKPEDKLGIRGSNTCEVHFENTKIPVENILGEVGDGFKVAMNILNSGRFSMGSVVAGLLKRLIEMTAEYACTRKQFNKRLSEFGLIQEKFALMAQKAYVMESMTYLTAGMLDQPGFPDCSIEAAMVKVFSSEAAWQCVSEALQILGGLGYTRDYPYERILRDTRILLIFEGTNEILRMYIALTGLQHAGRILTTRIHELKQAKVSTVMDTVGRRLRDSLGRTVDLGLTGNHGVVHPSLADSANKFEENTYCFGRTVETLLLRFGKTIMEEQLVLKRVANILINLYGMTAVLSRASRSIRIGLRNHDHEVLLANTFCVEAYLQNLFSLSQLDKYAPENLDEQIKKVSQQILEKRAYICAHPLDRTC
B2: SMCR8 (protein, UniProt Q8TEV9 1-937)
chain: MISAPDVVAFTKEEEYEEEPYNEPALPEEYSVPLFPFASQGANPWSKLSGAKFSRDFILISEFSEQVGPQPLLTIPNDTKVFGTFDLNYFSLRIMSVDYQASFVGHPPGSAYPKLNFVEDSKVVLGDSKEGAFAYVHHLTLYDLEARGFVRPFCMAYISADQHKIMQQFQELSAEFSRASECLKTGNRKAFAGELEKKLKDLDYTRTVLHTETEIQKKANDKGFYSSQAIEKANELASVEKSIIEHQDLLKQIRSYPHRKLKGHDLCPGEMEHIQDQASQASTTSNPDESADTDLYTCRPAYTPKLIKAKSTKCFDKKLKTLEELCDTEYFTQTLAQLSHIEHMFRGDLCYLLTSQIDRALLKQQHITNFLFEDFVEVDDRMVEKQESIPSKPSQDRPPSSSLEECPIPKVLISVGSYKSSVESVLIKMEQELGDEEYKEVEVTELSSFDPQENLDYLDMDMKGSISSGESIEVLGTEKSTSVLSKSDSQASLTVPLSPQVVRSKAVSHRTISEDSIEVLSTCPSEALIPDDFKASYPSAINEEESYPDGNEGAIRFQASISPPELGETEEGSIENTPSQIDSSCCIGKESDGQLVLPSTPAHTHSDEDGVVSSPPQRHRQKDQGFRVDFSVENANPSSRDNSCEGFPAYELDPSHLLASRDISKTSLDNYSDTTSYVSSVASTSSDRIPSAYPAGLSSDRHKKRAGQNALKFIRQYPFAHPAIYSLLSGRTLVVLGEDEAIVRKLVTALAIFVPSYGCYAKPVKHWASSPLHIMDFQKWKLIGLQRVASPAGAGTLHALSRYSRYTSILDLDNKTLRCPLYRGTLVPRLADHRTQIKRGSTYYLHVQSMLTQLCSKAFLYTFCHHLHLPTHDKETEELVASRQMSFLKLTLGLVNEDVRVVQYLAELLKLHYMQESPGTSHPMLRFDYVPSFLYKI
B3: TDRKH (protein, UniProt Q9Y2W6 1-561)
chain: MSTERTSWTSLSTIQKIALGLGIPASATVAYILYRRYRESREERLTFVGEDDIEIEMRVPQEAVKLIIGRQGANIKQLRKQTGARIDVDTEDVGDERVLLISGFPVQVCKAKAAIHQILTENTPVSEQLSVPQRSVGRIIGRGGETIRSICKASGAKITCDKESEGTLLLSRLIKISGTQKEVAAAKHLILEKVSEDEELRKRIAHSAETRVPRKQPISVRREDMTEPGGAGEPALWKNTSSSMEPTAPLVTPPPKGGGDMAVVVSKEGSWEKPSDDSFQKSEAQAIPEMPMFEIPSPDFSFHADEYLEVYVSASEHPNHFWIQIVGSRSLQLDKLVNEMTQHYENSVPEDLTVHVGDIVAAPLPTNGSWYRARVLGTLENGNLDLYFVDFGDNGDCPLKDLRALRSDFLSLPFQAIECSLARIAPSGDQWEEEALDEFDRLTHCADWKPLVAKISSYVQTGISTWPKIYLYDTSNGKKLDIGLELVHKGYAIELPEDIEENRAVPDMLKDMATETDASLSTLLTETKKSSGEITHTLSCLSLSEAASMSGDDNLEDDYLL
B4: OCIAD1 (protein, UniProt Q9NX40 1-245)
chain: MNGRADFREPNAEVPRPIPHIGPDYIPTEEERRVFAECNDESFWFRSVPLAATSMLITQGLISKGILSSHPKYGSIPKLILACIMGYFAGKLSYVKTCQEKFKKLENSPLGEALRSGQARRSSPPGHYYQKSKYDSSVSGQSSFVTSPAADNIEMLPHYEPIPFSSSMNESAPTGITDHIVQGPDPNLEESPKRKNITYEELRNKNRESYEVSLTQKTDPSVRPMHERVPKKEVKVNKYGDTWDE
B5: WDR41 (protein, UniProt Q9HAD4 1-459)
chain: MLRWLIGGGREPQGLAEKSPLQTIGEEQTQNPYTELLVLKAHHDIVRFLVQLDDYRFASAGDDGIVVVWNAQTGEKLLELNGHTQKITAIITFPSLESCEEKNQLILTASADRTVIVWDGDTTRQVQRISCFQSTVKCLTVLQRLDVWLSGGNDLCVWNRKLDLLCKTSHLSDTGISALVEIPKNCVVAAVGKELIIFRLVAPTEGSLEWDILEVKRLLDHQDNILSLINVNDLSFVTGSHVGELIIWDALDWTMQAYERNFWDPSPQLDTQQEIKLCQKSNDISIHHFTCDEENVFAAVGRGLYVYSLQMKRVIACQKTAHDSNVLHVARLPNRQLISCSEDGSVRIWELREKQQLAAEPVPTGFFNMWGFGRVSKQASQPVKKQQENATSCSLELIGDLIGHSSSVEMFLYFEDHGLVTCSADHLIILWKNGERESGLRSLRLFQKLEENGDLYLAV
B6: C9orf72 (protein, UniProt Q96LT7 1-481)
chain: MSTLCPPPSPAVAKTEIALSGKSPLLAATFAYWDNILGPRVRHIWAPKTEQVLLSDGEITFLANHTLNGEILRNAESGAIDVKFFVLSEKGVIIVSLIFDGNWNGDRSTYGLSIILPQTELSFYLPLHRVCVDRLTHIIRKGRIWMHKERQENVQKIILEGTERMEDQGQSIIPMLTGEVIPVMELLSSMKSHSVPEEIDIADTVLNDDDIGDSCHEGFLLNAISSHLQTCGCSVVVGSSAEKVNKIVRTLCLFLTPAERKCSRLCEAESSFKYESGLFVQGLLKDSTGSFVLPFRQVMYAPYPTTHIDVDVNTVKQMPPCHEHIYNQRRYMRSELTAFWRATSEEDMAQDTIIYTDESFTPDLNIFQDVLHRDTLVKAFLDQVFQLKPGLSLRSTFLAQFLLVLHRKALTLIKYIEDDTQKGKKPFKSLRNLKIDLDLTAEGDLNIIMALAEKIKPGLHSFIFGRPFYTSVQERDVLMTF
B7: MFF (protein, UniProt Q9GZY8 1-342)
chain: MSKGTSSDTSLGRVSRAAFPSPTAAEMAEISRIQYEMEYTEGISQRMRVPEKLKVAPPNADLEQGFQEGVPNASVIMQVPERIVVAGNNEDVSFSRPADLDLIQSTPFKPLALKTPPRVLTLSERPLDFLDLERPPTTPQNEEIRAVGRLKRERSMSENAVRQNGQLVRNDSLWHRSDSAPRNKISRFQAPISAPEYTVTPSPQQARVCPPHMLPEDGANLSSARGILSLIQSSTRRAYQQILDVLDENRRPVLRGGSAAATSNPHHDNVRYGISNIDTTIEGTSDDLTVVDAASLRRQIIKLNRRLQLLEEENKERAKREMVMYSITVAFWLLNSWLWFRR

What follows are binders tested against T1, MTRF1L-BirA*-FLAG (human) (assay: proximity labelling).

Row | binding | Binder
1 | binds | B1

Each binder was assayed against T2, PTPN1 BirA*-FLAG bait (human) (assay: proximity labelling).

Row | binding | Binder
2 | binds | B2
3 | binds | B3
4 | binds | B4
5 | binds | B5
6 | binds | B6
7 | binds | B7

These binders were tested against BirA*-FLAG-FKBP8 (human) (UniProt Q14318) (assay: proximity labelling).

Row | binding | Binder
8 | binds | B2
9 | binds | B4
10 | binds | B5
11 | binds | B6

The binders below were run against RHOT2 BirA*-FLAG bait (human) (UniProt Q8IXI1) (assay: proximity labelling).

Row | binding | Binder
12 | binds | B2
13 | binds | B3
14 | binds | B4
15 | binds | B5
16 | binds | B6
17 | binds | B7

These binders were tested against T3, RMDN3-BirA*-FLAG (human) (assay: proximity labelling).

Row | binding | Binder
18 | binds | B2
19 | binds | B3
20 | binds | B4
21 | binds | B5
22 | binds | B6
23 | binds | B7

The binders below were run against T4, SLC25A46 BirA*-FLAG bait (human) (assay: proximity labelling).

Row | binding | Binder
24 | binds | B2
25 | binds | B3
26 | binds | B4
27 | binds | B5
28 | binds | B6
29 | binds | B7
